# Among all 140,000 compounds or so, about 4,300 (3.1%) were called active. The inconclusive results got no clear call from the source; some entries with a clear call stand among them for comparison.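 How the source made its calls: active means readout at or below -70, meaning at least 70% loss of cells showing the perinucleolar compartment, a nuclear body marking cancer cells; inconclusive means readout between -30 and a set limit; inactive means the rest.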
# Test: High Content Assay for Compounds that inhibit the Assembly of the Perinucleolar Compartment;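 further: plate controls were DMSO wells for no effect and camptothecin positive control wells for full effect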
# Conditions: PC3M PTB-GFP, PNC prevalence imaging, 16 h; at 10 µM; active compounds read low
# Procedure, shortened: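 Compounds are pinned in duplicate onto adhered PC3M cells stably expressing GFP-tagged PTB and incubated 16 h at 37 C. Cells are then fixed, nuclei stained with Hoechst, and PNC-positive cells counted.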
row,SMILES,"activity change (PNC), negative = inhibition"
1,Cc1ccc(NC(=O)C2CCN(S(=O)(=O)c3c(C)[nH]c(=O)[nH]c3=O)CC2)cc1,active: -97.8%
2,COc1ccc(NC(=O)c2cccc(C#N)c2)cc1NS(=O)(=O)c1ccc(F)cc1,inconclusive: -50.8%
3,COc1ccc(-c2[nH]c3ccccc3c2SCCNC(=O)c2ccccc2)cc1,inconclusive: -66.4%
4,COc1ccc(NC(=O)CN2CCN(CC(=O)Nc3ccc4c(c3)OCO4)CC2)cc1,inconclusive: -47.6%
5,COC(=O)c1ccccc1NC(=O)N[C@@H](C)C(=O)OC,inconclusive: -40.2%
6,COc1ccccc1N=CC1=C(O)CC(c2ccccc2)CC1=O (stereo unspecified),inconclusive: -35.5%
7,CC(=O)NC(CC(=O)NC1CCCCCC1)c1ccccc1 (stereo unspecified),inconclusive: -40.4%
8,N#C/C(=C/c1cn(-c2ccccc2)nc1-c1cccc(S(=O)(=O)N2CCCC2)c1)C(=O)NCc1ccco1,inconclusive: -46.6%
9,CCOc1ccc(-c2nn(-c3ccccc3)cc2/C=C2\SC(=S)N(C3CCS(=O)(=O)C3)C2=O)cc1 (stereo unspecified),inactive: -1.11%
10,Cc1c(CC=C(Cl)Cl)c(=O)[nH]c2c(C)cccc12,inconclusive: -49.5%
11,O=C1C=C(NC2=CC3OC(c4ccccc4)OCC3OC2=O)CCC1 (stereo unspecified),inconclusive: -45.3%
12,O=C(Nc1ccncc1)Nc1ccc(F)cc1F,inactive: 12.6%
13,CCOc1ccc(NC(=O)c2ccccc2OC)cc1,inconclusive: -41.4%
14,CSCCC(NC(=O)c1cccc([N+](=O)[O-])c1)C(=O)O (stereo unspecified),inactive: -21.9%
15,CCCOc1ccc(NC(=O)CC2C(=O)N(C)C(=S)N2Cc2cccs2)cc1 (stereo unspecified),active: -119%
16,CC(C)OC(=O)c1sc2nc(-c3ccccc3)ccc2c1N,active: -100%
17,Nc1cc([N+](=O)[O-])ccc1O,inactive: 14.5%
18,CC(C)CSc1ncc(-c2cccc(C(F)(F)F)c2)cn1,inactive: 46.8%
19,Cc1sc(NC(=O)c2ccco2)c(CN2CCN(c3ccc(F)cc3)CC2)c1C,inconclusive: -36.6%
20,COC(=O)c1cccnc1NC(=S)NNC(=O)c1ccccc1,inactive: -1.25%
21,Cc1cccc(C)c1OCC(=O)N/N=C/c1ccc2c(c1)OCO2,inconclusive: -52.6%
22,CCOC(=O)C1=C(C)N=c2s/c(=C/c3ccccc3)c(=O)n2C1c1ccc(OC)c(OC)c1 (stereo unspecified),inactive: 11.3%
23,CN(C)S(=O)(=O)c1ccc(NC(=O)CNc2cc(S(=O)(=O)N3CCCC3)ccc2OCC(F)(F)F)cc1,inconclusive: -79.4%

row,SMILES,"activity change (PNC), negative = inhibition"
1,CCOc1ccccc1NC(=O)CCCc1nc2ccccc2c(=O)[nH]1,inconclusive: -55.8%
2,Cn1c(CC(=O)Nc2ccc(Cl)c(Cl)c2)nnc1SCC(=O)N1CCN(c2ccccc2)CC1,inconclusive: -35.4%
3,CCC(=O)c1cc2c(C)cc(=O)oc2c(C)c1O,inconclusive: -32.9%
4,Cc1cc(NC(=O)c2c([N+](=O)[O-])cnn2C)no1,inconclusive: -41.7%
5,CC1(C)OC(C)(C)/C(=C/Nc2ccc(O)cc2)C1=O,inactive: 170%
6,CC(=O)n1nc(-c2ccccc2)nc1NCc1ccc(F)cc1,inconclusive: -49.4%
7,O=c1cc(NC2CCCCC2)c2ccccc2o1,inactive: 20.8%
8,CC1=CS(=O)(=O)CC1Sc1ncn[nH]1 (stereo unspecified),active: -100%
9,Cc1ccc2c(c1)NC(=O)C(CC(=O)NCCCN1CCN(c3cc(Cl)ccc3C)CC1)O2 (stereo unspecified),inconclusive: -52.8%
10,Cc1nc(C)n(C(=O)N(c2ccccc2)c2ccccc2)n1,inconclusive: -45%
11,Cc1cc(C)c(NC(=O)C2CSCCS2)c(C)c1 (stereo unspecified),inactive: -13.7%
12,Cc1cnc(C)c(N2CCC(C(=O)NCc3cccs3)CC2)n1,active: -127%
13,Cc1cc(N2CCCC2)n2nc(C)nc2n1,active: -84.2%
14,Cc1cccc(/C=C\c2nc3ccccc3c(=O)[nH]2)c1,inconclusive: -40.2%
15,CC(=O)c1cccc(Nc2nc(-c3cccc([N+](=O)[O-])c3)cs2)c1,active: -85.1%
16,C/C(=N\Nc1ccc([N+](=O)[O-])cc1)c1cccc(N)c1,inconclusive: -33.3%
17,Cc1ccc(-c2csc(-c3c[nH]c4ccccc34)n2)c(C)c1,inconclusive: -39.1%
18,Oc1[nH]c2ccccc2c1N=NC(=S)NCC1CCCO1 (stereo unspecified),inconclusive: -43.6%
19,O=S1(=O)Nc2c(ccc3cccnc23)-c2ccccc21,inactive: -7.54%
20,CCCn1nc(NS(=O)(=O)c2ccccc2)c2cc3cc(C)ccc3nc21,inactive: 9.97%
21,O=C(Cc1cc(=O)[nH]c(=O)[nH]1)NCc1ccccc1,inactive: 32.5%
22,CCCCNc1nc2c(c(=O)[nH]c(=O)n2C)n1CCOc1ccccc1,inactive: 44.9%
23,c1ccc(Cn2nnc3c(Nc4ccc5c(c4)OCO5)nc(C4CC4)nc32)cc1,inconclusive: -47.5%

row,SMILES,"activity change (PNC), negative = inhibition"
1,COc1cccc(/C=N/N2C(=O)C3C4c5ccccc5C(c5ccccc54)C3C2=O)c1OC (stereo unspecified),inconclusive: -60.6%
2,O=C(CSc1nccc(=O)[nH]1)N1c2ccccc2CCc2ccccc21,inactive: -3.7%
3,COc1ccc(C2C3=C(CCCC3=O)Nc3nc(C(F)(F)F)nn32)c(OC)c1OC (stereo unspecified),active: -87.8%
4,CC1=CC(C)C2C(=O)N(O)C(=O)C2C1 (stereo unspecified),inconclusive: -57.2%
5,O=C(CSc1ncn[nH]1)c1ccc2c(c1)OCO2,inconclusive: -37.6%
6,COc1ccc(NC(=O)c2ccc(OC(F)F)cc2)cc1Cl,inconclusive: -30.4%
7,CC(C)c1ccc(NC(=O)C(c2ccccc2)N2CC(=O)Nc3ccccc32)cc1 (stereo unspecified),inactive: -2.46%
8,CC1=CC(C)C(C(=O)O)C(C(=O)O)C1 (stereo unspecified),active: -81%
9,COC(=O)c1nnn(-c2nonc2N)c1CSc1nc2ccccc2s1,inconclusive: -43.9%
10,CC(C(=O)NCCN1C(=O)S/C(=C\c2cccs2)C1=O)N1C(=O)c2ccccc2C1=O (stereo unspecified),inconclusive: -47.6%
11,COc1ccccc1NC(=S)N1CCN(c2ccccn2)CC1,inconclusive: -30.9%
12,CCOC(=O)CCSc1nc(C)c2cc(C)c(C)cc2n1,inconclusive: -63.6%
13,COc1ccc(NC(=O)/C(C#N)=C/c2cc(C)n(-c3ccc(N4CCOCC4)c([N+](=O)[O-])c3)c2C)cc1,inactive: 2.82%
14,COc1ccc(C=O)cc1COc1c(F)c(F)cc(F)c1F,inactive: 22.2%
15,COc1ccccc1OCCn1cc(/C=C(\C#N)C(=O)NCc2ccco2)c2ccccc21,inactive: -2.14%
16,CC(=O)Nc1ccccc1-c1nc2ccc(C(=O)N3CCN(c4cccc(C)c4)C(C)C3)cc2[nH]c1=O (stereo unspecified),inconclusive: -36.1%
17,CCCCCC(=O)Nc1ccc2oc(-c3cccnc3)nc2c1,inconclusive: -75.8%
18,Cc1cc(C)c(C)c(S(=O)(=O)NCC(=O)N2CCCC2)c1C,inconclusive: -45.2%
19,COc1cccc(C2C(C#N)=C(N)N(c3ncn[nH]3)C3=C2C(=O)CCC3)c1 (stereo unspecified),inconclusive: -52.1%
20,O=C(/C=C\c1ccco1)Nc1nc(-c2ccc3ccccc3c2)cs1,inconclusive: -37.1%
21,CC(C)Oc1ccc(CNC(=O)Cn2c(=O)oc3ccccc32)cc1,inactive: 19.8%
22,COc1ccccc1N1CCN(/N=C/c2c(C)nn(-c3ccccc3)c2C)CC1,active: -84.3%
23,Cc1ccc(C(=O)CSc2nnc(COc3cc(C)cc(C)c3)o2)cc1,inactive: -5.75%

# Three compounds from above, arranged by SMILES length, smallest number first:
row,SMILES,"activity change (PNC), negative = inhibition"
22,COc1ccccc1N1CCN(/N=C/c2c(C)nn(-c3ccccc3)c2C)CC1,active: -84.3%
3,COc1ccc(C2C3=C(CCCC3=O)Nc3nc(C(F)(F)F)nn32)c(OC)c1OC (stereo unspecified),active: -87.8%
16,CC(=O)Nc1ccccc1-c1nc2ccc(C(=O)N3CCN(c4cccc(C)c4)C(C)C3)cc2[nH]c1=O (stereo unspecified),inconclusive: -36.1%

# Later entries:

row,SMILES,"activity change (PNC), negative = inhibition"
1,Cc1c(O)nc(SCC(=O)Nc2ccc3c4c(cccc24)CC3)n(-c2ccccc2)c1=O,active: -113%
2,Cc1nn2cc(-c3ccccc3)nc2[nH]c1=O,inconclusive: -35.3%
3,CCOCCn1c(-c2ccc(OC)cc2)nc2ccccc21,active: -106%
4,Cc1cccc(NC(=O)/C(=C/c2cccc([N+](=O)[O-])c2)NC(=O)c2cccs2)c1,inactive: 3.57%
5,COc1ccc(C(=O)Nc2c(Cl)cc(Cl)cc2C(=O)NCc2ccco2)cc1,inconclusive: -33.2%
6,Cc1ccccc1-c1nc(CN2CCC(C(=O)NCC3CCCO3)CC2)c(C)o1 (stereo unspecified),inconclusive: -48.3%
7,C/C(=N\NC(=O)CSc1nc(C)cc(C)n1)c1cccc([N+](=O)[O-])c1,inactive: 15.8%
8,Cc1ccc(S(=O)(=O)N/N=C/c2cccc(OC3CSC3)c2)cc1,inactive: -9.17%
9,Cc1cccc2nc(CSc3nc4[nH]ncc4c(=O)n3-c3ccccc3Cl)cc(=O)n12,inconclusive: -54.6%
10,CC1CN(Cc2ccc(C#N)cc2Cl)CC(C)O1 (stereo unspecified),inconclusive: -45.7%
11,c1ccc(-c2nc3ccccc3nc2-c2ccccn2)nc1,active: -85.6%
12,COCCN1C(=O)C(O)=C(C(C)=O)C1c1ccc(F)cc1 (stereo unspecified),inactive: -17.1%
13,CCC1S/C(=N\S(=O)(=O)c2cccs2)N(C2CCCCC2)C1=O (stereo unspecified),inactive: 35.1%
14,COc1ccccc1CCC(=O)Nc1nc2ccccc2[nH]1,inconclusive: -46.1%
15,COCCCn1cnc2c(c1=O)c1nc3ccccc3nc1n2-c1ccc(C)cc1,inconclusive: -31.9%
16,O=C(Nc1ccccc1)c1sc(N2CCOCC2)nc1-c1ccccc1,inconclusive: -58.2%
17,Cc1ccc(S(=O)(=O)NCC(=O)NC2CCCCCC2)cc1,inconclusive: -50.8%
18,CC1CN(C2CCN(C(=O)COc3ccc(Cl)cc3)CC2)CC(C)O1 (stereo unspecified),inactive: 21.8%
19,Cc1ccc2c(nc3s/c(=C/c4cccs4)c(=O)n32)c1C,inactive: 7.1%
20,CCCCc1c(C)nc2ccccc2c1SCCC#N,inactive: 27.5%
21,COc1ccccc1NC(=O)CSc1nnnn1-c1ccc(C)cc1,inconclusive: -38.2%
22,COc1ccc(OC)c(C(=O)COC(=O)c2ccccc2O)c1,inconclusive: -33.1%

# — PubChem BioAssay AID2417 (National Center for Advancing Translational Sciences (NCATS), 2010)
